The list shows a part of the results. The list holds hits alone, and they repeat only in part.
Assays:
Assay in all cases: PRISMA enrichment of interactor (LFQ) in peptide spot vs all other peptide spots (log2 fold change); higher = stronger / more specific binding of the interactor to the peptide
[1] = molecular target: COX6B1, P14854
Experimental: (§1)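 PRISMA: 15-aa overlapping tiles (offset 8 aa) of 60 microproteins, plus SOS1/GLUT1 control peptides, were spot-synthesized on cellulose membranes in triplicate. Membranes were incubated with benzonase-treated HEK293T lysate, and bound proteins were identified by LC-MS/MS with LFQ. Enrichment is the log2 fold change of each protein in one spot versus all other spots. Only interactors passing the significance cutoff are listed.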

By UniProt entry, the sequences of proteins in these tests, tags left out.
COX6B1, P14854, UniProt P14854, whole entry: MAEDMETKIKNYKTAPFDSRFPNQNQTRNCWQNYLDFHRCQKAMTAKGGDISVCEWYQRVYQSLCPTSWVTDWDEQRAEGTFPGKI
NDUFS8, O00217, UniProt O00217, whole entry: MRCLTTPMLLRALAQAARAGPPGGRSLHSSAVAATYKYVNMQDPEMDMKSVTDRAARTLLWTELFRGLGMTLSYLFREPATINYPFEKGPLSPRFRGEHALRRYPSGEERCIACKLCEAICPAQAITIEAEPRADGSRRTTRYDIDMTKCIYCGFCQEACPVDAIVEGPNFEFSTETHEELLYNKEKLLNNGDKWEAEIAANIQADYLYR
COX6C, P09669, UniProt P09669, whole entry: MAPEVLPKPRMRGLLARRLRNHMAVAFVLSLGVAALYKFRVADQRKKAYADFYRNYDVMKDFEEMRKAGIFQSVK
IGF2BP3, O00425, UniProt O00425, whole entry: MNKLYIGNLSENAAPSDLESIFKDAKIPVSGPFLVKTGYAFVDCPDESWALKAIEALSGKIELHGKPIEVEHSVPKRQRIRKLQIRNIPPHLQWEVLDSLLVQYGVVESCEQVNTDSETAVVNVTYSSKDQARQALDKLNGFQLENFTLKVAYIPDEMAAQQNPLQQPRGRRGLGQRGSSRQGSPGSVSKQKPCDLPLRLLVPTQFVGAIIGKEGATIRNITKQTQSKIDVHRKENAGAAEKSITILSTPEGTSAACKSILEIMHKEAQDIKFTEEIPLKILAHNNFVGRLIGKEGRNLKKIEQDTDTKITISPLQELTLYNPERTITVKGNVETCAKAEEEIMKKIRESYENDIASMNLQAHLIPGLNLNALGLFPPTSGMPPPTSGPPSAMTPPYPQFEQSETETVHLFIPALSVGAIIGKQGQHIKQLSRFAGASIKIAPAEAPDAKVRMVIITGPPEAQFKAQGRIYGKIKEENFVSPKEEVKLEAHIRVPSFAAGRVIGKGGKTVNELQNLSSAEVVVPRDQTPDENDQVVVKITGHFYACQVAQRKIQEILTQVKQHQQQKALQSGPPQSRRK
PABPC4, Q13310, UniProt Q13310, whole entry: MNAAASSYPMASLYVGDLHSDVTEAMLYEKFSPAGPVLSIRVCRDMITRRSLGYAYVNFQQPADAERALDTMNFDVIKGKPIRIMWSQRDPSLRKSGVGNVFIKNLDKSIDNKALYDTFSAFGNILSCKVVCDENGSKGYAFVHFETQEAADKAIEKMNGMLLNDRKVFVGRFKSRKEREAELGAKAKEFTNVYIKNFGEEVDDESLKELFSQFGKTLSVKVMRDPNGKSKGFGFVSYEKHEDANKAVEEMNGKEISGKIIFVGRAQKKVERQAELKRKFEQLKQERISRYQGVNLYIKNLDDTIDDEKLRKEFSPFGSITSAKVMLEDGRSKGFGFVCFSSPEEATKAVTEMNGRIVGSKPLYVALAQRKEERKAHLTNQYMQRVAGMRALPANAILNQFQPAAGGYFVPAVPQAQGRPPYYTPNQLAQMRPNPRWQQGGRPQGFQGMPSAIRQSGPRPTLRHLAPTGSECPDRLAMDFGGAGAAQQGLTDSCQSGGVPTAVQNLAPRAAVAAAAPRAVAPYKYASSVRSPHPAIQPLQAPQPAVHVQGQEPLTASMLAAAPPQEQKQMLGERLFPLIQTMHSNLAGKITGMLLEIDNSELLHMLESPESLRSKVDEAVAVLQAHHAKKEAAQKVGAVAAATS
PSMC3, P17980, UniProt P17980, whole entry: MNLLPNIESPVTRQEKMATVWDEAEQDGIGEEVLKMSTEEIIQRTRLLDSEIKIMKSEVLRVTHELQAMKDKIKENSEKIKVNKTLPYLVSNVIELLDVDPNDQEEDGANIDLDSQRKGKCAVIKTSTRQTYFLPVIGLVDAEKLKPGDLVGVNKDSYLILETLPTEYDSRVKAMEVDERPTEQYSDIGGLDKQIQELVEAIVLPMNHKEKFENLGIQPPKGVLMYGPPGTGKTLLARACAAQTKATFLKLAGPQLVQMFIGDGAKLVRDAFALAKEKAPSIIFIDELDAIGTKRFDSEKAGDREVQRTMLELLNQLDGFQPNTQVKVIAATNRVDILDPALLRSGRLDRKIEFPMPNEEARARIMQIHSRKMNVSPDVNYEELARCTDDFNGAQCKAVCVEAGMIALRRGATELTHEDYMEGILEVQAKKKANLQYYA
RFC2, P35250, UniProt P35250, whole entry: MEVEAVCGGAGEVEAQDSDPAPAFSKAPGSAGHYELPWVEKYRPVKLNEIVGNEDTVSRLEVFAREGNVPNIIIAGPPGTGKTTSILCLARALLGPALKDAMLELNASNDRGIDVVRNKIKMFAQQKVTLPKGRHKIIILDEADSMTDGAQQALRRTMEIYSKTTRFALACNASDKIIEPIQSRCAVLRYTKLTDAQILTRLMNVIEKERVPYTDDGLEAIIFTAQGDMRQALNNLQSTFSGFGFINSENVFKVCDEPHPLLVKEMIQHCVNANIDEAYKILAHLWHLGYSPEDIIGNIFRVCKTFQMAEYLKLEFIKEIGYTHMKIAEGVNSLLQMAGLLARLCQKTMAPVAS
XPO1, O14980, UniProt O14980, whole entry: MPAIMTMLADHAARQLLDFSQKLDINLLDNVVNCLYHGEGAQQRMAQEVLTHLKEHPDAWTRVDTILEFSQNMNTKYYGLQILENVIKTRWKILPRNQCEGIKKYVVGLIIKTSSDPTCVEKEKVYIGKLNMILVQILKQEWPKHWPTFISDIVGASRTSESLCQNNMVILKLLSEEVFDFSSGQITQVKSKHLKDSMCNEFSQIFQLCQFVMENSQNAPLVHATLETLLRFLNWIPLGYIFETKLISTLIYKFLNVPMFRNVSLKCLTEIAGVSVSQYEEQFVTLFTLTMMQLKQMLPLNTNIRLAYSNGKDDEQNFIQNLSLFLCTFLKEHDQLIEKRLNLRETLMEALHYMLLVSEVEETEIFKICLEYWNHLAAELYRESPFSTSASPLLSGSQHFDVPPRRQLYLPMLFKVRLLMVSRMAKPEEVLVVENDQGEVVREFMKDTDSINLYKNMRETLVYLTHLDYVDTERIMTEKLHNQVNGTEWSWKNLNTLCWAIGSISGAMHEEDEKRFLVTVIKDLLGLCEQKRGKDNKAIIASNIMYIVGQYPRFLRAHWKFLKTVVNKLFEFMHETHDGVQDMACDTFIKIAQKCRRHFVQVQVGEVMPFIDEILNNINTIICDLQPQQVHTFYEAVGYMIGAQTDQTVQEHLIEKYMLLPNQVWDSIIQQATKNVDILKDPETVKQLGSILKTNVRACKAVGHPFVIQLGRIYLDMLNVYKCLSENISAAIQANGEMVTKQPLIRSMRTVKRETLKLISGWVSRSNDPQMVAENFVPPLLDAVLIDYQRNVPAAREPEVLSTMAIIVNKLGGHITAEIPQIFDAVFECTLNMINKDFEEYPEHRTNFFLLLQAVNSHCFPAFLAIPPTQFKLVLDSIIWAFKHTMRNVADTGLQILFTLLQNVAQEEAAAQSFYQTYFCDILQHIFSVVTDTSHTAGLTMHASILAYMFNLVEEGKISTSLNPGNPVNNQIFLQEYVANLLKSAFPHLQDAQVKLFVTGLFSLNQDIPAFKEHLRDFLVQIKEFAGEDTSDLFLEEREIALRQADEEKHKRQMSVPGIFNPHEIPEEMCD
PDIA3, P30101, UniProt P30101, whole entry: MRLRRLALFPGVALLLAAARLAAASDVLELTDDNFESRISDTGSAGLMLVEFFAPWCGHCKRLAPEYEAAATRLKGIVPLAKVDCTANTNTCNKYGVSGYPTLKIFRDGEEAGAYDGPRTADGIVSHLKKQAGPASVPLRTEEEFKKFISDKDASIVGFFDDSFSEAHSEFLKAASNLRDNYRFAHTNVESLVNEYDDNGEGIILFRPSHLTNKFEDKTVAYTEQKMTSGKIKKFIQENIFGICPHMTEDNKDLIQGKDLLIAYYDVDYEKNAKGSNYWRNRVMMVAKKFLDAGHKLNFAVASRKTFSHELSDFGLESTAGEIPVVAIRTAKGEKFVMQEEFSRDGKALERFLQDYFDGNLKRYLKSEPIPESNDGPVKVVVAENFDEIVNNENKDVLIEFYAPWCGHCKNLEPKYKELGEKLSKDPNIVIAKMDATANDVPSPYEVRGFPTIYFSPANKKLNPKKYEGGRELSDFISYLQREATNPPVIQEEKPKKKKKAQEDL
NDUFA10, O95299, UniProt O95299, whole entry: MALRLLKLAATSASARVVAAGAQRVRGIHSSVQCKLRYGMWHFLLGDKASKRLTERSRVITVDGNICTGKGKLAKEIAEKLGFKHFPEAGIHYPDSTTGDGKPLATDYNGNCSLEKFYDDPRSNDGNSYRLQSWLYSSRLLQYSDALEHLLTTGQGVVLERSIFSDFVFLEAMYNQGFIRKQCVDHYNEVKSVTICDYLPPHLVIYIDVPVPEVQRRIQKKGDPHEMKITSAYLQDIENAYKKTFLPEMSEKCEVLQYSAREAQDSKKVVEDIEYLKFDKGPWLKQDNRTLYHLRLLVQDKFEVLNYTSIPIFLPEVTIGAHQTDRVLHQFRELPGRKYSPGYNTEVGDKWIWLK
TUBB8, Q3ZCM7, UniProt Q3ZCM7, whole entry: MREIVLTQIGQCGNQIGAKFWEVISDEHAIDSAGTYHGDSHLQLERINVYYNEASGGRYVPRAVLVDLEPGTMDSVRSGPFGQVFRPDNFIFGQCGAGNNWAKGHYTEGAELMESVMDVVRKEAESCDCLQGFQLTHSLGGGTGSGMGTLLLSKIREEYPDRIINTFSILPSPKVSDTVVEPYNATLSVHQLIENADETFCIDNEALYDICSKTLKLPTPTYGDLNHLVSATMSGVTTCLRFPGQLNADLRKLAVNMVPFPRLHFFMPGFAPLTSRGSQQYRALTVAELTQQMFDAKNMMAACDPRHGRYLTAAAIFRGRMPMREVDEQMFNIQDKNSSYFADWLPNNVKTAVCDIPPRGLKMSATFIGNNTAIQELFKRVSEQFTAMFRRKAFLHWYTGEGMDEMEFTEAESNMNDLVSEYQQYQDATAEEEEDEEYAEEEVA
RGPD5, Q99666, UniProt Q99666, whole entry: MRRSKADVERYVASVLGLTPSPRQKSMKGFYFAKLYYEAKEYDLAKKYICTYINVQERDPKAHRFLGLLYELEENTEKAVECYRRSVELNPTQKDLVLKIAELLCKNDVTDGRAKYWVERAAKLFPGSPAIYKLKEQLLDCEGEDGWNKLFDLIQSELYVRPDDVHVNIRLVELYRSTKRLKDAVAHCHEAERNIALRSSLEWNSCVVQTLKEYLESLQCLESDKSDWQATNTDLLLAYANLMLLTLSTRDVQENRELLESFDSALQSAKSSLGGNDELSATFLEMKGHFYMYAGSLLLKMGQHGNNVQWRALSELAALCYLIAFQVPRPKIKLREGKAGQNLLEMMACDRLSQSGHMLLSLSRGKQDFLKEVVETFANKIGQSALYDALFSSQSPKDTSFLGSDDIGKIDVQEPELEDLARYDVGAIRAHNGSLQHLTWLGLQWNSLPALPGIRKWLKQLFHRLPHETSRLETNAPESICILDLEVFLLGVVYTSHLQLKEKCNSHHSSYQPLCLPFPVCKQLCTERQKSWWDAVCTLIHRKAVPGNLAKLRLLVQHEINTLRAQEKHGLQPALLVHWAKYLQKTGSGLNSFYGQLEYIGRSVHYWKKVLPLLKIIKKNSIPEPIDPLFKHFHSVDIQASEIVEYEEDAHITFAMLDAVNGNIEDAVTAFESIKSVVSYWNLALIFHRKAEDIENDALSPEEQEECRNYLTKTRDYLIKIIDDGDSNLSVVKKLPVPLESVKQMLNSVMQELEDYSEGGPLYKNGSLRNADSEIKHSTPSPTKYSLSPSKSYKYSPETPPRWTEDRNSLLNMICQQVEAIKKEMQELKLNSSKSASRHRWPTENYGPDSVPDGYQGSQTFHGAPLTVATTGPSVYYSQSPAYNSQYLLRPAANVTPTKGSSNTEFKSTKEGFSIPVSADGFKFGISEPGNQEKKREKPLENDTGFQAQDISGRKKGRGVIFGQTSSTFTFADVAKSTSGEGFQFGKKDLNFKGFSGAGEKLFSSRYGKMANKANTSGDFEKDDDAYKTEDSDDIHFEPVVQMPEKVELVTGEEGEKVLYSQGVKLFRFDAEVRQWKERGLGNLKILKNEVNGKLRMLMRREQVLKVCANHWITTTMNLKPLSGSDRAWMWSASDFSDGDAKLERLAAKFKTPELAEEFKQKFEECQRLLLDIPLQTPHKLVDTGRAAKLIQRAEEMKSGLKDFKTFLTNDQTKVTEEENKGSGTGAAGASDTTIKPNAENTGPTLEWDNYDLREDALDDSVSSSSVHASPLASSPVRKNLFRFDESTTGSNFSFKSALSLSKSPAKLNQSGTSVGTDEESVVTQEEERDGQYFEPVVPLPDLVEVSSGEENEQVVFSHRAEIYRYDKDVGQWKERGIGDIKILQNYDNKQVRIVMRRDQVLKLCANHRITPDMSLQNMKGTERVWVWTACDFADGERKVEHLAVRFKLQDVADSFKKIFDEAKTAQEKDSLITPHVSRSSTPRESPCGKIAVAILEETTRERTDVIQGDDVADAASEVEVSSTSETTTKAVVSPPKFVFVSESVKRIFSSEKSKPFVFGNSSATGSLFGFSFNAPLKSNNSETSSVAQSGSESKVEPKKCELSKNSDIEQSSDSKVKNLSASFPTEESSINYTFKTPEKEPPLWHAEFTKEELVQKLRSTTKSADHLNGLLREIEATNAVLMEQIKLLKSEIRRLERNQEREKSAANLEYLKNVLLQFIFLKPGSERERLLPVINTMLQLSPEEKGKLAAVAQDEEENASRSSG

[2] = molecular target: DCAF13, Q9NV06
Experimental: as §1

[3] = molecular target: NDUFS8, O00217
Experimental: as §1

[4] = molecular target: NNT, Q13423
Experimental: as §1

[5] = molecular target: RBM3, P98179
Experimental: as §1

[6] = molecular target: UFL1, O94874
Experimental: as §1

[7] = molecular target: ZC3H15, Q8WU90
Experimental: as §1

[8] = molecular target: COX6C, P09669
Experimental: as §1

[9] = molecular target: DDX42, Q86XP3
Experimental: as §1

[10] = molecular target: FAM98B, Q52LJ0
Experimental: as §1

[11] = molecular target: GATAD1, Q8WUU5
Experimental: as §1

[12] = molecular target: MRPL27, Q9P0M9
Experimental: as §1

[13] = molecular target: NAA15, Q9BXJ9
Experimental: as §1

[14] = molecular target: NAP1L1, P55209
Experimental: as §1

[15] = molecular target: OLA1, Q9NTK5
Experimental: as §1

[16] = molecular target: GNL3L, Q9NVN8
Experimental: as §1

[17] = substrate: CP, P00450
Experimental: as §1

[18] = molecular target: FAM83D, Q9H4H8
Experimental: as §1

[19] = molecular target: HERC5, Q9UII4
Experimental: as §1

[20] = molecular target: HMGN4, O00479
Experimental: as §1

[21] = molecular target: IGF2BP3, O00425
Experimental: as §1

[22] = molecular target: MUC19, Q7Z5P9
Experimental: as §1

[23] = substrate: PCNP, Q8WW12
Experimental: as §1

[24] = molecular target: SNRNP27, Q8WVK2
Experimental: as §1

[25] = molecular target: CSNK2A1, P68400
Experimental: as §1

[26] = molecular target: ECHS1, P30084
Experimental: as §1

[27] = molecular target: KARS, Q15046
Experimental: as §1

[28] = molecular target: PABPC4, Q13310
Experimental: as §1

[29] = molecular target: PPP1R2, P41236
Experimental: as §1

[30] = molecular target: PRDX4, Q13162
Experimental: as §1

[31] = molecular target: PSMC3, P17980
Experimental: as §1

[32] = molecular target: PWWP2A, Q96N64
Experimental: as §1

[33] = molecular target: SF1, Q15637
Experimental: as §1

[34] = molecular target: SLC7A6OS, Q96CW6
Experimental: as §1

[35] = molecular target: CSNK2A2, P19784
Experimental: as §1

[36] = molecular target: GRPEL1, Q9HAV7
Experimental: as §1

[37] = molecular target: MRPS28, Q9Y2Q9
Experimental: as §1

[38] = molecular target: TMEM201, Q5SNT2
Experimental: as §1

[39] = molecular target: CST4, P01036
Experimental: as §1

[40] = molecular target: LSM14A, Q8ND56
Experimental: as §1

[41] = molecular target: MAP4K4, O95819
Experimental: as §1

[42] = molecular target: MGST1, P10620
Experimental: as §1

[43] = molecular target: MRPS18B, Q9Y676
Experimental: as §1

[44] = molecular target: NUB1, Q9Y5A7
Experimental: as §1

[45] = molecular target: NUBP2, Q9Y5Y2
Experimental: as §1

[46] = molecular target: POLR2B, P30876
Experimental: as §1

[47] = substrate: PPIB, P23284
Experimental: as §1

[48] = molecular target: PSMD1, Q99460
Experimental: as §1

[49] = molecular target: RFC2, P35250
Experimental: as §1

[50] = molecular target: XPO1, O14980
Experimental: as §1

[51] = molecular target: CTCF, P49711
Experimental: as §1

[52] = molecular target: FBXW11, Q9UKB1
Experimental: as §1

[53] = molecular target: MLF2, Q15773
Experimental: as §1

[54] = molecular target: NOP58, Q9Y2X3
Experimental: as §1

[55] = molecular target: NUP153, P49790
Experimental: as §1

[56] = molecular target: ODF2, Q5BJF6
Experimental: as §1

[57] = molecular target: PDIA3, P30101
Experimental: as §1

[58] = molecular target: PSMC2, P35998
Experimental: as §1

[59] = molecular target: SF3B5, Q9BWJ5
Experimental: as §1

[60] = molecular target: ZNF616, Q08AN1
Experimental: as §1

[61] = molecular target: CTNNB1, P35222
Experimental: as §1

[62] = molecular target: EIF3B, P55884
Experimental: as §1

[63] = molecular target: IRAK1, P51617
Experimental: as §1

[64] = molecular target: MAP2K3, P46734
Experimental: as §1

[65] = molecular target: NDUFA10, O95299
Experimental: as §1

[66] = molecular target: SEC16A, O15027
Experimental: as §1

[67] = molecular target: SLC30A9, Q6PML9
Experimental: as §1

[68] = molecular target: SRSF1, Q07955
Experimental: as §1

[69] = molecular target: SRSF10, O75494
Experimental: as §1

[70] = molecular target: TUBB8, Q3ZCM7
Experimental: as §1

[71] = molecular target: CTU1, Q7Z7A3
Experimental: as §1

[72] = molecular target: DDX28, Q9NUL7
Experimental: as §1

[73] = molecular target: FAM133B, Q5BKY9
Experimental: as §1

[74] = molecular target: PRPF3, O43395
Experimental: as §1

[75] = molecular target: PSMB6, P28072
Experimental: as §1

[76] = molecular target: RBM38, Q9H0Z9
Experimental: as §1

[77] = molecular target: RBMS1, P29558
Experimental: as §1

[78] = molecular target: RGPD5, Q99666
Experimental: as §1

[79] = molecular target: SNX2, O60749
Experimental: as §1

[80] = molecular target: SNX27, Q96L92
Experimental: as §1

[81] = molecular target: SRPK1, Q96SB4
Experimental: as §1

[82] = molecular target: TIMM44, O43615
Experimental: as §1

## MFCCAQCEEAKEKKD [PRR34-AS1]
[1]
  PRISMA enrichment of interactor (log2): 6
[2]
  PRISMA enrichment of interactor (log2): 3.91
[3]
  PRISMA enrichment of interactor (log2): 3.8
[4]
  PRISMA enrichment of interactor (log2): 4.78
[5]
  PRISMA enrichment of interactor (log2): 5.4
[6]
  PRISMA enrichment of interactor (log2): 6.18
[7]
  PRISMA enrichment of interactor (log2): 7.49

## RLRRRYLDWRKRRLQ [MTLN]
[8]
  PRISMA enrichment of interactor (log2): 6.46
[9]
  PRISMA enrichment of interactor (log2): 5.8
[10]
  PRISMA enrichment of interactor (log2): 5.87
[11]
  PRISMA enrichment of interactor (log2): 4.57
[12]
  PRISMA enrichment of interactor (log2): 6.91
[13]
  PRISMA enrichment of interactor (log2): 6.95
[14]
  PRISMA enrichment of interactor (log2): 5.43
[15]
  PRISMA enrichment of interactor (log2): 4.53

## KPLTPKAKMPKHWSS [NAV2-AS2_2]
[8]
  PRISMA enrichment of interactor (log2): 5.56
[16]
  PRISMA enrichment of interactor (log2): 7.14

## MAHEHGHEHGHHKME [NDUFB3]
[17]
  PRISMA enrichment of interactor (log2): 5.43
[18]
  PRISMA enrichment of interactor (log2): 4.87
[19]
  PRISMA enrichment of interactor (log2): 4.44
[20]
  PRISMA enrichment of interactor (log2): 5.45
[21]
  PRISMA enrichment of interactor (log2): 5.64
[22]
  PRISMA enrichment of interactor (log2): 8.63
[23]
  PRISMA enrichment of interactor (log2): 4.24
[24]
  PRISMA enrichment of interactor (log2): 4.29

## TRASMEPPLVAGGLS [JHDM1D-AS1]
[25]
  PRISMA enrichment of interactor (log2): 5.5
[26]
  PRISMA enrichment of interactor (log2): 4.93
[27]
  PRISMA enrichment of interactor (log2): 5.88
[28]
  PRISMA enrichment of interactor (log2): 6.34
[29]
  PRISMA enrichment of interactor (log2): 5.37
[30]
  PRISMA enrichment of interactor (log2): 5.94
[31]
  PRISMA enrichment of interactor (log2): 5.1
[32]
  PRISMA enrichment of interactor (log2): 3.9
[33]
  PRISMA enrichment of interactor (log2): 5.85
[34]
  PRISMA enrichment of interactor (log2): 4.66

## LHVEHYTLLFFRILF [HAND2-AS1]
[35]
  PRISMA enrichment of interactor (log2): 4.39
[9]
  PRISMA enrichment of interactor (log2): 6.29
[36]
  PRISMA enrichment of interactor (log2): 4.6
[37]
  PRISMA enrichment of interactor (log2): 6.71
[38]
  PRISMA enrichment of interactor (log2): 6.6

## AFPCAALGETHTDRG [LINC00881_2]
[39]
  PRISMA enrichment of interactor (log2): 5.81
[40]
  PRISMA enrichment of interactor (log2): 5.44
[41]
  PRISMA enrichment of interactor (log2): 4.87
[42]
  PRISMA enrichment of interactor (log2): 3.79
[43]
  PRISMA enrichment of interactor (log2): 3.97
[44]
  PRISMA enrichment of interactor (log2): 4.64
[45]
  PRISMA enrichment of interactor (log2): 8.3
[46]
  PRISMA enrichment of interactor (log2): 9.31
[47]
  PRISMA enrichment of interactor (log2): 5.37
[48]
  PRISMA enrichment of interactor (log2): 9.54
[49]
  PRISMA enrichment of interactor (log2): 6.33
[50]
  PRISMA enrichment of interactor (log2): 5.65

## QGPPPMSPSMTPSQT [PALLD]
[51]
  PRISMA enrichment of interactor (log2): 4.42
[52]
  PRISMA enrichment of interactor (log2): 5.74
[53]
  PRISMA enrichment of interactor (log2): 4.24
[22]
  PRISMA enrichment of interactor (log2): 8.32
[54]
  PRISMA enrichment of interactor (log2): 4.52
[55]
  PRISMA enrichment of interactor (log2): 5.71
[56]
  PRISMA enrichment of interactor (log2): 10
[57]
  PRISMA enrichment of interactor (log2): 10.7
[58]
  PRISMA enrichment of interactor (log2): 5.71
[59]
  PRISMA enrichment of interactor (log2): 5.44
[60]
  PRISMA enrichment of interactor (log2): 4.69

## PQGNHKVLYKERYSS [TRDN-AS1_2]
[61]
  PRISMA enrichment of interactor (log2): 4.92
[62]
  PRISMA enrichment of interactor (log2): 4.68
[63]
  PRISMA enrichment of interactor (log2): 4.09
[64]
  PRISMA enrichment of interactor (log2): 3.67
[65]
  PRISMA enrichment of interactor (log2): 4.01
[66]
  PRISMA enrichment of interactor (log2): 3.98
[67]
  PRISMA enrichment of interactor (log2): 5.32
[68]
  PRISMA enrichment of interactor (log2): 4.2
[69]
  PRISMA enrichment of interactor (log2): 4.43
[70]
  PRISMA enrichment of interactor (log2): 4.2

## HCHSYRLSSLEGAAG [PEX2]
[71]
  PRISMA enrichment of interactor (log2): 5.37
[72]
  PRISMA enrichment of interactor (log2): 6.74
[62]
  PRISMA enrichment of interactor (log2): 4.6
[73]
  PRISMA enrichment of interactor (log2): 4.23
[10]
  PRISMA enrichment of interactor (log2): 6.31
[74]
  PRISMA enrichment of interactor (log2): 4.75
[75]
  PRISMA enrichment of interactor (log2): 4.16
[76]
  PRISMA enrichment of interactor (log2): 5.15
[77]
  PRISMA enrichment of interactor (log2): 4.49
[78]
  PRISMA enrichment of interactor (log2): 5.78
[79]
  PRISMA enrichment of interactor (log2): 5.84
[80]
  PRISMA enrichment of interactor (log2): 4.34
[81]
  PRISMA enrichment of interactor (log2): 4.57
[82]
  PRISMA enrichment of interactor (log2): 4.31

— the supplement of paper PMC10032668
